Experimental data published in patent US9733262B2, “Method for measuring blood coagulation” (SEKISUI MEDICAL CO., LTD., priority 2009, dated 2017).
Where a name gives a salt, the structure may show the parent alone.

System: commercially available normal plasma (Coagtrol N)
Assay: Fibrinogen measurement by thrombin time method: coagulation time and change in scattered light intensity of normal plasma after adding thrombin reagent
Type: biochemical
Conditions: for ΔH (maximum of a change in scattered light intensity): Table 1, agent in specimen diluent (HEPES buffer pH 7.5), amount adjusted to similar coagulation time: NaCl 145 mM, NaBr 110, KBr 105, KCl 135, LiCl 135, guanidine HCl 90, guanidine phosphate 30, guanidine sulfamate 55, aminoguanidine HCl 90, arginine HCl 55, arginine methyl ester 17 mM, single measurement for conventional methods (2)-(5), ten times for the others; for Change in light intensity ΔH: Table 2, specimen diluent HEPES buffer pH 7.5, NaCl 150 mM (A), NaCl 150 mM + PEG 20000 0.1% (B), aminoguanidine hydrochloride 90 mM, mean of three times measurement
Description: When a fibrinogen concentration in a plasma specimen is measured by a thrombin time method, in general, thrombin is added to plasma to measure a coagulation time, and the concentration is determined from a standard curve prepared using standard solutions having known fibrinogen concentrations. In the procedure, 90 μL of a specimen diluent are added to and mixed with 10 μL of specimen plasma, subsequently 50 μL of a thrombin-containing reagent are added as a blood coagulation activator-containing reagent, and a coagulation time is measured.
In this example, commercially available normal plasma (Coagtrol N, manufactured by Sysmex Corporation) as the plasma specimen, a Coagpia Fbg thrombin reagent (manufactured by Sekisui Medical Co., Ltd.) as the thrombin-containing reagent, and a full-automated blood coagulation time analyzer Coagrex 800 (manufactured by Sysmex Corporation) as a coagulation time measurement apparatus were used. This apparatus employs a scattered light detection method, and change data of scattered light intensity with time can also be obtained along with the coagulation time.
When an HEPES buffer (pH 7.5) was used as the specimen diluent, the commercially available normal plasma coagulated in several seconds (4.6 seconds).
Commercially available normal plasma was measured in the same manner as in Example 1 using the specimen diluent (HEPES buffer, pH 7.5) in which the amount of the blood coagulation time prolonging agent added was adjusted so as to obtain the similar coagulation time. The comparative results of the maximum of a change ΔH in scattered light intensity and of the simultaneous reproducibility of the measurements between in the conventional method and in the present invention were shown in Table 1.
A specimen diluent containing sodium chloride as the blood coagulation time prolonging agent was defined as a conventional method A and a specimen diluent further containing polyethylene glycol (molecular weight: 20000) (hereinafter, referred to as PEG 20000) as an enhancer of a change in light intensity in the conventional method A was defined as a conventional method B, and the specimen diluents were compared with a specimen diluent employing aminoguanidine hydrochloride (present invention) which served as both of the blood coagulation time prolonging agent and the enhancer of a change in light intensity. It should be noted that an HEPES buffer (pH 7.5) was used as a buffer in all of the cases. Further, the concentration of PEG 20000 to be added in the conventional method B was set to 0.1%, because a large amount of PEG 20000 could increase the viscosity of diluent and reduce the accuracy of sampling. The coagulation time of commercially available normal plasma was measured in the same manner as in Example 1 using each specimen diluent. The change of the scattered light intensity in the conventional method B with the addition of PEG 20000 became larger than in the conventional method A without the addition.

## [Cl-].[K+] [Potassium chloride]
  ΔH (maximum of a change in scattered light intensity): 2,170

## N=C(N)NN [Aminoguanidine hydrochloride]
  ΔH (maximum of a change in scattered light intensity): 3,480
  Change in light intensity ΔH: 3,444

## N=C(N)N.O=P(O)(O)O [Guanidine phosphate]
  ΔH (maximum of a change in scattered light intensity): 4,217

## [Cl-].[Li+] [Lithium chloride]
  ΔH (maximum of a change in scattered light intensity): 2,305

## [Cl-].[Na+] [Sodium chloride]
  ΔH (maximum of a change in scattered light intensity): 2,348
  Change in light intensity ΔH: 2,194

## [Br-].[K+] [Potassium bromide]
  ΔH (maximum of a change in scattered light intensity): 2,127

## Cl.N=C(N)NCCC[C@H](N)C(=O)O [Arginine hydrochloride]
  ΔH (maximum of a change in scattered light intensity): 3,529

## N=C(N)N [Guanidine hydrochloride]
  ΔH (maximum of a change in scattered light intensity): 4,575

## [Br-].[Na+] [Sodium bromide]
  ΔH (maximum of a change in scattered light intensity): 2,174

## COC(=O)[C@@H](N)CCCNC(=N)N [Arginine methyl ester]
  ΔH (maximum of a change in scattered light intensity): 6,130

## N=C(N)N.NS(=O)(=O)O [Guanidine sulfamate]
  ΔH (maximum of a change in scattered light intensity): 5,167
